Laboratory results: PMC8877913
Results are given in words; binding and its absence hold for the method and conditions named. Binding seen in cells or lysates may run through a third protein. Some results given as binding are weak or reduced against the parent protein; the word gives no strength.

Chains of the proteins cited; added tags and fusions are not shown.
UniProt P0C206: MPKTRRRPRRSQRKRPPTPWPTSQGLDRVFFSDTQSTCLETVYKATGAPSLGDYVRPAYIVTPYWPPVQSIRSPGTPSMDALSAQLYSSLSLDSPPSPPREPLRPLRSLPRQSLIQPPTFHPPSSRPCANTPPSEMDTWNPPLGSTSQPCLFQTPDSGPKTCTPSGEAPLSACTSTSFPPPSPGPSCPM

Target: GST-Rex (HTLV-1 Rex) (HTLV-1) (UniProt P0C206)
Assay: pull-down

B1: NONO (non-POU domain-containing octamer-binding protein NONO/p54nrb) (protein, UniProt Q15233 1-471)
chain: MQSNKTFNLEKQNHTPRKHHQHHHQQQHHQQQQQQPPPPPIPANGQQASSQNEGLTIDLKNFRKPGEKTFTQRSRLFVGNLPPDITEEEMRKLFEKYGKAGEVFIHKDKGFGFIRLETRTLAEIAKVELDNMPLRGKQLRVRFACHSASLTVRNLPQYVSNELLEEAFSVFGQVERAVVIVDDRGRPSGKGIVEFSGKPAARKALDRCSEGSFLLTTFPRPVTVEPMDQLDDEEGLPEKLVIKNQQFHKEREQPPRFAQPGSFEYEYAMRWKALIEMEKQQQDQVDRNIKEAREKLEMEMEAARHEHQVMLMRQDLMRRQEELRRMEELHNQEVQKRKQLELRQEEERRRREEEMRRQQEEMMRRQQEGFKGTFPDAREQEIRMGQMAMGGAMGINNRGAMPPAPVPAGTPAPPGPATMMPDGTLGLTPPTTERFGQAATMEGIGAIGGTPPAFNRAAPGAEFAPNKRRRY
  binding: binds
